Measured values from article PMC7956376.

Biological target: T1, StSN2 full length fused to pGBKT7 (SN2-BD) (potato (Solanum tuberosum, cultivar Chuanyu 10)) (UniProt Q93X17)
T1 sequence: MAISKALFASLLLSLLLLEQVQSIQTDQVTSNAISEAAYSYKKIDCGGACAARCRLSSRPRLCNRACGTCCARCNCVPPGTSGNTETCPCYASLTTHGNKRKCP
Assay: two-hybrid; yeast two-hybrid of SN2 with DIM/DWF1, told only in the discussion; no figure and no construct named

DIM/DWF1 in the yeast two-hybrid assay
binding: no binding

Results are given in words; binding and its absence hold for the method and conditions named. Tags and fused reporters may be left off the sequences shown.
